Data as given in PubChem BioAssay AID1259254 (NCATS, 2017).
The whole screen tested about 59,000 reagents; below is an unselected part. In the full data, about 1,550 (2.6%) are marked active. 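G2 share is only a proxy for re-replication; each gene was hit by three separate siRNAs, and active genes were retested.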 Raw values are not corrected between plates. A number with no mark means an inactive call. The numbers tell different reagents against one gene apart. Reagent sequences are not shown. Not given: the amount of reagent.

Purpose: 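Genome-wide screen for genes that prevent DNA re-replication in cancer cells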 (primary screen)
Cell system: human HCT116 colorectal cancer cells
Reagents: single siRNA against human genes
Time to read-out: 3 days
Measurement: 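Nuclei stained with Hoechst and imaged; cell-cycle phase assigned by DNA content; G2 share scaled per plate, non-targeting siRNA 0%, GMNN siRNA 100%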
Scale: G2 robust z-score and G2 cells, % of GMNN control: higher = more G2 cells, more excess DNA replication; raw share of cells in G2: higher = larger share of cells with G2 DNA content
Call rule: 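Active siRNAs have a G2 robust z of 5 or more median absolute deviations over the median, which in these data means about 38% or higher of GMNN control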

| gene | reagent | G2 robust z-score | G2 cells, % of GMNN control | raw share of cells in G2 (%) |
| --- | --- | --- | --- | --- |
| ANKRD27 (GeneID 84079) | 1 | -0.474 | -0.366 | 3.99 |
| ANKRD27 (GeneID 84079) | 2 | -0.309 | 0.794 | 3.69 |
| ANKRD27 (GeneID 84079) | 3 | -0.386 | 0.254 | 2.48 |
| ZNF497 (GeneID 162968) | 1 | 0.904 | 9.33 | 6.3 |
| ZNF497 (GeneID 162968) | 2 | 0.091 | 3.61 | 4.42 |
| ZNF497 (GeneID 162968) | 3 | 0.376 | 5.61 | 5.49 |
| PGBD4 (GeneID 161779) | 1 | -0.584 | -1.14 | 3.19 |
| PGBD4 (GeneID 161779) | 2 | -0.603 | -1.27 | 2.53 |
| PGBD4 (GeneID 161779) | 3 | 0.304 | 5.1 | 4.38 |
| ZNF142 (GeneID 7701) | 1 | -0.839 | -2.93 | 2.55 |
| ZNF142 (GeneID 7701) | 2 | 0.0202 | 3.11 | 7.37 |
| ZNF142 (GeneID 7701) | 3 | -0.58 | -1.11 | 2.87 |
| MYH2 (GeneID 4620) | 1 | 3.75 | 29.4 | 17.1 |
| MYH2 (GeneID 4620) | 2 | -0.678 | -1.8 | 4.66 |
| MYH2 (GeneID 4620) | 3 | 0.518 | 6.61 | 5.38 |
| TRIM64 (GeneID 120146) | 1 | 0.839 | 8.87 | 9.79 |
| TRIM64 (GeneID 120146) | 2 | -0.644 | -1.56 | 4.3 |
| TRIM64 (GeneID 120146) | 3 | -0.429 | -0.0514 | 4.46 |
| RO60 (GeneID 6738) | 1 | -0.574 | -1.07 | 5.32 |
| RO60 (GeneID 6738) | 2 | -0.258 | 1.15 | 4.94 |
| RO60 (GeneID 6738) | 3 | -0.305 | 0.822 | 4.23 |
| THAP1 (GeneID 55145) | 1 | -0.358 | 0.448 | 4.52 |
| THAP1 (GeneID 55145) | 2 | -0.576 | -1.08 | 4.05 |
| THAP1 (GeneID 55145) | 3 | -1.22 | -5.61 | 3.97 |
| SH3BP5 (GeneID 9467) | 1 | -1.1 | -4.78 | 4.1 |
| SH3BP5 (GeneID 9467) | 2 | 0.859 | 9.01 | 8.47 |
| SH3BP5 (GeneID 9467) | 3 | -0.203 | 1.54 | 4.18 |
| FLRT2 (GeneID 23768) | 1 | -0.0383 | 2.7 | 7.39 |
| FLRT2 (GeneID 23768) | 2 | -0.651 | -1.61 | 3.65 |
| FLRT2 (GeneID 23768) | 3 | -0.808 | -2.72 | 3.1 |
| FAM50B (GeneID 26240) | 1 | -0.702 | -1.97 | 3.67 |
| FAM50B (GeneID 26240) | 2 | 1.53 | 13.7 | 9.89 |
| FAM50B (GeneID 26240) | 3 | 1.56 | 14 | 8.18 |
| NPTX1 (GeneID 4884) | 1 | 0.266 | 4.84 | 7.11 |
| NPTX1 (GeneID 4884) | 2 | -0.194 | 1.6 | 4.1 |
| NPTX1 (GeneID 4884) | 3 | 0.00223 | 2.98 | 4.19 |
| NEXN (GeneID 91624) | 1 | -0.337 | 0.597 | 3.11 |
| NEXN (GeneID 91624) | 2 | -0.649 | -1.6 | 3.41 |
| NEXN (GeneID 91624) | 3 | -0.0513 | 2.61 | 3.82 |
| RPS2P12 (GeneID 650901) | 1 | 0.737 | 8.15 | 6.87 |
| RPS2P12 (GeneID 650901) | 2 | 1.5 | 13.5 | 8.15 |
| RPS2P12 (GeneID 650901) | 3 | 2.84 | 22.9 | 9.58 |
| SLC18B1 (GeneID 116843) | 1 | -0.525 | -0.724 | 3.8 |
| SLC18B1 (GeneID 116843) | 2 | 2.08 | 17.6 | 8.58 |
| SLC18B1 (GeneID 116843) | 3 | -0.113 | 2.17 | 2.45 |
| DENND5A (GeneID 23258) | 1 | -0.32 | 0.716 | 5.27 |
| DENND5A (GeneID 23258) | 2 | 2.15 | 18.1 | 11.6 |
| DENND5A (GeneID 23258) | 3 | 6.23 (active) | 46.8 | 20.7 |
| KRTAP3-2 (GeneID 83897) | 1 | -0.213 | 1.47 | 2.85 |
| KRTAP3-2 (GeneID 83897) | 2 | -0.456 | -0.239 | 4.03 |
| KRTAP3-2 (GeneID 83897) | 3 | 0.133 | 3.91 | 4.62 |
| IK (GeneID 3550) | 1 | 0.985 | 9.9 | 9.18 |
| IK (GeneID 3550) | 2 | 0.396 | 5.75 | 6.49 |
| IK (GeneID 3550) | 3 | 0.229 | 4.58 | 5.01 |
| OR4M2 (GeneID 390538) | 1 | -0.486 | -0.453 | 3.62 |
| OR4M2 (GeneID 390538) | 2 | -0.477 | -0.386 | 3.24 |
| OR4M2 (GeneID 390538) | 3 | 0.199 | 4.36 | 6.51 |
| RSAD2 (GeneID 91543) | 1 | 2.07 | 17.6 | 11.5 |
| RSAD2 (GeneID 91543) | 2 | -0.762 | -2.39 | 2.25 |
| RSAD2 (GeneID 91543) | 3 | -0.444 | -0.154 | 2.88 |
| SPACA3 (GeneID 124912) | 1 | 1.01 | 10 | 8.12 |
| SPACA3 (GeneID 124912) | 2 | -0.572 | -1.06 | 3.02 |
| SPACA3 (GeneID 124912) | 3 | -0.0825 | 2.39 | 2.52 |
| GAL3ST3 (GeneID 89792) | 1 | -0.96 | -3.79 | 3.91 |
| GAL3ST3 (GeneID 89792) | 2 | -0.849 | -3 | 3.68 |
| GAL3ST3 (GeneID 89792) | 3 | -0.56 | -0.974 | 4.11 |
| HNRNPH2 (GeneID 3188) | 1 | 1.28 | 12 | 10.9 |
| HNRNPH2 (GeneID 3188) | 2 | 5.32 (active) | 40.4 | 18.9 |
| HNRNPH2 (GeneID 3188) | 3 | -0.58 | -1.12 | 3.09 |

As entered above:
RPS2P12 (GeneID 650901) #2, G2 robust z-score → 1.5
For “raw share of cells in G2 (%)”, TRIM64 (GeneID 120146) #3 shows 4.46
IK (GeneID 3550) #1, G2 cells, % of GMNN control → 9.9
ZNF497 (GeneID 162968) #3, G2 robust z-score: 0.376
Result for MYH2 (GeneID 4620) #2 in “G2 robust z-score”: -0.678
For “raw share of cells in G2 (%)”, THAP1 (GeneID 55145) #2 shows 4.05
